This is an account of results in paper doi:10.1101/2022.12.09.519731 (bioRxiv, 2022).

Common to all, as to test: pull-down
Experiment [1] concerns the target T1, His6-MglB (Myxococcus xanthus) (UniProt Q1DB03).
T1 sequence: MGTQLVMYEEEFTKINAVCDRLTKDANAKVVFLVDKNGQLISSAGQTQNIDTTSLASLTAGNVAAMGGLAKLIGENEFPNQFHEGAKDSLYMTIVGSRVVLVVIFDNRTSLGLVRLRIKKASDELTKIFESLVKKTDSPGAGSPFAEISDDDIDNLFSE

Experiment [2] concerns the target T1, His6-MglB (Myxococcus xanthus). The source holds these as a separate data set.
In experiment [3] the target is T2, His6-MglB^KRK (Myxococcus xanthus) (UniProt Q1DB03).
T2 sequence: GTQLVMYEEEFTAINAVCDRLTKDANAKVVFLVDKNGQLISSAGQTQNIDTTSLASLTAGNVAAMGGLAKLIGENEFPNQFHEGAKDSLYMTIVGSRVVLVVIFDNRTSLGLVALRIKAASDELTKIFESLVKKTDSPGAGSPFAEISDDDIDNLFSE

Experiment [4] has as its target Strep-MglC (Myxococcus xanthus).
The target is the same in experiment [5]. This is another data set of the same source.

Where two headings read alike, the source gives them in different places. Results are given in words; binding and its absence hold for the method and conditions named. For part of these data: Binding can be weak; no strength is given. Tags and fused reporters may be left off the sequences shown.

As for Strep-MglC (Myxococcus xanthus), the binding result in experiment [1] was “binds”; in experiment [2], “binds”; in experiment [3], “no binding (tested: 10µM)”.

B1: MglA-His6 (protein, UniProt Q1DB04 1-195)
chain: MSFINYSSREINCKIVYYGPGLCGKTTNLQYIYNKTAAETKGKLISLSTETDRTLFFDFLPLSLGEIRGFKTRFHLYTVPGQVFYDASRKLILKGVDGVVFVADSQIERMEANMESLENLRINLAEQGYDLNKIPYVIQYNKRDLPNAVTVEEMRKALNHRNIPEYQAVAPTGVGVFDTLKAVAKLVLTELKKGG
Turning to B1, the binding result in experiment [4] is “no binding (tested: 10µM)”.

B2: His6-MglB (natural protein, Myxococcus xanthus)
chain: MGTQLVMYEEEFTKINAVCDRLTKDANAKVVFLVDKNGQLISSAGQTQNIDTTSLASLTAGNVAAMGGLAKLIGENEFPNQFHEGAKDSLYMTIVGSRVVLVVIFDNRTSLGLVRLRIKKASDELTKIFESLVKKTDSPGAGSPFAEISDDDIDNLFSE
Regarding B2, the binding entry in experiment [4] and in experiment [5] was “binds” throughout.
